# Measurements: the supplement of paper PMC10735217
# Structures can show the parent of a compound that is named as a salt. This is one part of the list. This data set is noisy: repeats of one test often differ as much as different tests do.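 The human kidney-derived cells carry a stably integrated construct of eight TEAD-binding elements driving luciferase, read by luminescence in a drug-repurposing library screen. A compound counts as a hit when its signal is more than five robust Z scores above the plate mean.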
# Test system: HEK293A TEAD-LUC reporter
# Test: TEAD-luciferase reporter activity (YAP activation), robust Z score vs plate; higher = stronger YAP/TEAD activation
# Conditions: 24 h
SMILES,TEAD-luciferase reporter activity (compound concentration: 200 nM),TEAD-luciferase reporter activity (compound concentration: 2 uM),TEAD-luciferase reporter activity (compound concentration: 10 uM)
CC(C)Cn1cnc2c(N)nc3cccnc3c21 [Epetirimod esilate],inactive: -0.663,inactive: -0.447,inactive: 0.573
COC(=O)C(C)Oc1ccc(Cl)c(Cl)c1 (stereo not given),inactive: 2.2,inactive: 0.548,inactive: -1.47
CC(C)(C)C(=O)N1CCC(n2c(=O)[nH]c3ccccc32)CC1,inactive: -0.215,,inactive: 3.63
CCNC(=O)c1ccc(Oc2cc(NC(=O)N3CCC(O)(CC(CC)CC)CC3)cc(Oc3ccc(F)cc3)c2)cc1,inactive: 0.169,inactive: -1.2,inactive: 0.596
O=C1c2ccc(O)c(Br)c2OCC1c1ccc(O)cc1 (stereo not given),inactive: -0.249,inactive: -0.126,inactive: -0.821
FC(F)(F)c1cccnc1-c1ccc(-c2nc3ccc(Br)cc3[nH]2)nc1,inactive: -1.75,inactive: 0.802,inactive: -0.48
"CCOc1nc2cccc(C(=O)OC(C)OC(=O)OC3CCCCC3)c2n1Cc1ccc(-c2ccccc2-c2nnn[nH]2)cc1 (stereo not given) [candesartan cilexetil, GlaxoSmithKline]",inactive: -0.701,inactive: -0.388,inactive: 1.12
CONC(=O)Nc1ccc(-c2sc3c(c2CN(C)C)c(=O)n(-c2ccc(OC)nn2)c(=O)n3Cc2c(F)cccc2F)cc1 [Relugolix],inactive: 0.309,inactive: -0.876,inactive: 2.48
Cc1nc(C)c(Cl)c(NS(=O)(=O)c2ccc(N)cc2)n1,inactive: -0.879,inactive: 0.361,inactive: -0.862
CCn1c(=O)c(-c2cc[nH]n2)cc2c(C)nc(N)nc21 [Voxtalisib hydrochloride],inactive: -0.0274,inactive: -0.835,inactive: -1.86
OC[C@H]1O[C@@H](Oc2ccc(O)cc2)C(O)[C@@H](O)C1O (stereo not given in full) [Arbutin (Hydroqui   -glucose_:_ Arbutoside_:_ Ericolin)],,inactive: -1.29,
OC[C@H]1O[C@@H](Oc2ccc(O)cc2)C(O)[C@@H](O)C1O (stereo not given in full) [Arbutin (Hydroqui  -glucose],,,inactive: 1.7
OC[C@H]1O[C@@H](Oc2ccc(O)cc2)C(O)[C@@H](O)C1O (stereo not given in full) [Arbutin (Hydroqui-glucose],inactive: 0.586,,
CCC(=O)O[C@@H]1CC(=O)O[C@H](C)C/C=C/C=C/[C@H](OC(C)=O)[C@H](C)C[C@H](CC=O)[C@H](O[C@@H]2O[C@H](C)[C@@H](O[C@H]3C[C@@](C)(OC(C)=O)[C@@H](OC(=O)CC)[C@H](C)O3)[C@H](N(C)C)[C@H]2O)[C@H]1OC [Midecamycin acetate],inactive: -1.07,inactive: -0.761,inactive: -0.0122

# Part of the list above, bar-delimited.
SMILES | TEAD-luciferase reporter activity (compound concentration: 200 nM) | TEAD-luciferase reporter activity (compound concentration: 2 uM) | TEAD-luciferase reporter activity (compound concentration: 10 uM)
COC(=O)C(C)Oc1ccc(Cl)c(Cl)c1 (stereo not given) | inactive: 2.2 | inactive: 0.548 | inactive: -1.47
CCC(=O)O[C@@H]1CC(=O)O[C@H](C)C/C=C/C=C/[C@H](OC(C)=O)[C@H](C)C[C@H](CC=O)[C@H](O[C@@H]2O[C@H](C)[C@@H](O[C@H]3C[C@@](C)(OC(C)=O)[C@@H](OC(=O)CC)[C@H](C)O3)[C@H](N(C)C)[C@H]2O)[C@H]1OC [Midecamycin acetate] | inactive: -1.07 | inactive: -0.761 | inactive: -0.0122
